No constants are given. Whether binding was seen depends on the method and setting. Binding seen in cells or lysates may run through a third protein. These calls come from enrichment with a bait or labelling near it, and not all partners need be listed.
Biological target: GST-14-3-3
Assay: affinity purification with mass spectrometry; KIOSS: glutathione Sepharose 4B beads coated with GST-14-3-3 (500 pmol), incubated with RIPA lysates of mouse striatal/accumbal slices for 60 min at 4 °C; slices treated with PEP-005 or carbachol, with or without GF109203X; bound proteins digested, phosphopeptides enriched on TiO2, LC-MS/MS; only the target purified

Binder	binding
Dlgap1 (protein, UniProt Q9D415 1-992, phosphorylated; sites not given) MKGLSGSRSHHHGITCEAACDSLSHHSDHKPYLLSPVDHHPADHPYYTQRNSFQAECVGPFSDPLASSTFPRRHYTSQQELKDESALVPRTLATKANRLPTNLLDQFERQLPLSRDGYHTLQYKRTAVEHRSDSPGRIRHLVHSVQKLFTKSHSLEGPSKGSVNGGKASPDESQTLRYGKRSKSKERRSESKARSNASNASPTSPSWWSSDDNLDGDMCLYHTPSGVMTMGRCPDRSASQYFMEAYNTISEQAVKASRSNNDIKCSTCANLPVTLDAPLLKKSAWSSTLTVSRAREVYQKASVNMDQAMVKSEACQQERSCQYLQVPQDEWSGYTPRGKDDEIPCRRMRSGSYIKAMGDEDSGDSDTSPKPSPKVAARRESYLKATQPSLTELTTLKISNEHSPKLQIRSHSYLRAVSEVSINRSLDSLDPAGLLTSPKFRSRNESYMRAMSTISQVSEMEVNGQFESVCESVFSELESQAVEALDLPLPGCFRMRSHSYVRAIEKGCSQDDECVSLRSSSPPRTTTTVRTIQSSTGVIKLSSAVEVSSCITTYKKTPPPVPPRTTTKPFISITAQSSTESAQDAYMDGQGQRGDMISQSGLSNSTESLDSMKALTAAIEAANAQIHGPASQHMGSNAAAVTTTTTIATVTTEDRKKDFKKNRCLSIGIQVDDAEEPEKMAESKTSNKFQSVGVQVEEEKCFRRFTRSNSVTTAVQADLDFHDNLENSLESIEDNSCPGPMARQFSRDASTSTVSIQGSGNHYHACAADDDFDTDFDPSILPPPDPWIDSITEDPLEAVQRSVCHRDGHWFLKLLQAERDRMEGWCKLMEREERENNLPEDILGKIRTAVGSAQLLMAQKFYQFRELCEENLNPNAHPRPTSQDLAGFWDMLQLSIENISMKFDELHQLKANNWKQMDPLDKKERRAPPPVPKKPAKGPAPLIRERSLESSQRQEARKRLMAAKRAASVRQNSATESAESIEIYIPEAQTRL	binds
Dlgap2 (protein, UniProt Q8BJ42 1-1059, phosphorylated; sites not given) MGTAQVLPGILQKHCCILPDRNTESQCTLCGEPEEEEGGDLAQPGLSFPGPAEEDIDQQYSWSPTQHFNEERYSPAPRNMKGLTGSRNQPQLCAGHTCGLSPPDDCEHPHDHMHHGSDVRQPYLLSPAESCPMDHHRCSPRSSVHSECMMMPVMLGDHVSSSTFPRMHYSSHYDTRDDCAMSHTSTKVNRIPANLLDQFEKQLPLHRDGFHTLQYQRASAATEQRNESPGRIRHLVHSVQKLFTKSHSLEGSSKSNINGTKSDSRVDDHHQSHLSKHSKRSKSKERKPESKHKSGMSSWWSSDDNLDSDSTYRTPSVAHRHHMDHIPHCYPEALQSPFGDLSLKTSKSNNDVKCSACEGLALTPDTRYMKRSSWSTLTVSQAKEAYRKSSLNLDKPLVHPEIKPSLRPCHYLQVPQDDWGAYPTGGKEEEIPCRRMRSGSYIKAMGDEESGESDSSPKTSPTVAIRPEPLLKPIIQRPLGDHQTQSYLQAATEVPVGHSLNPSINYNSPKFRSRNQSYMRAVSTLSQASCVSQMSEAEVNGQFESVCESVFSEVESQAMDALDLPGCFRTRSHSYLRAIQAGYSQDDECIPVMTSSNMTSTIRSTAAVSYTNYKKTPPPVPPRTTSKPLISVTAQSSTESTQDAYQDSRAQRMSPWPQDSRGGLYNSMDSLDSNKAMNLALETAAAQRHAADTQSSSTRSIDKAVLASKAEELLKSRCSSIGVQDSEFPDHQPYPRSDVETATDSDTESRGLREYHSVGVQVEDEKRHGRFKRSNSVTAAVQADLELEGFPGHVSMEDKGLQFGSSFQRHSEPSTPTQYGALRTVRTQGLFSYREDYRTQVDTSTLPPPDPWLEPSLDTVETGRMSPCRRDGSWFLKLLHTETKRMEGWCKEMEREAEENDLLEDILGKIRSAVGSAQLLMSQKFQQFYWLCQQNMDPSAMPRPTSQDLAGYWDMLQLSVEDVSMKFDELHQLKLNDWKIIESPERKEERKIPPPIPKKPPKGKFPITREKSLDLPDRQRQEARRRLMAAKRAASFRQNSATERADSIEIYIPEAQTRL	binds
Dlgap3 (protein, UniProt Q6PFD5 1-977, phosphorylated; sites not given) MRGYHGDRGSHPRPARFADQQHMDVGPAARAPYLLGSREAFSTEPRFCAPRAGLGHLSPEGPLSLSEGPSSVGPEGGPGGVGAGGGSSTFPRMYPGQGPFDTCEDCVGHPQGKGATRLPPTLLDQFEKQLPVQQDGFHTLPYQRGPAGPGPGPGSGAAPEARSESPSRIRHLVHSVQKLFAKSHSLEAPGKRDYNGPKADGRGSSGGDSYSGPGSGGTPTSHHHHHHHHHHHHQSRHGKRSKSKDRKGDGRHQTKATGWWSSDDNLDSDSGFLGGRPPGEPGGPFCLDAPDGSYRDLSFKGRSGGSEGRCLACTGMSMSLDGQSVKRSAWHTMMVSQGRDGYPGAGPGKGLLGPETKAKARTYHYLQVPQDDWGGYPTGGKDGEIPCRRMRSGSYIKAMGDEESGDSDGSPKTSPKALARRFASRRSSSVDTARINCCVPPRIHPRSSIPGYSRSLTTGQLSEEFNQQLEAVCGSVFGELESQAVDALDLPGCFRMRSHSYLRAIQAGCSQDDDCLPLLAAPASVSGRPGSSFNFRKAPPPIPPGSQAPPRISITAQSSTDSAHESFTAAEGPARRCSSADGLDGPTMGARTLELAPVPPRASPKPPTLIIKTIPGREELRSLARQRKWRPSIGVQVETISDSDTENRSRREFHSIGVQVEEDKRRARFKRSNSVTAGVQADLELEGLAGLATVATEDKALQFGRSFQRHASEPQPGPRAPTYSVFRTVHTQGQWAYREGYPLPYEPPATDGSPGPTPVPAPGPGSGRRDSWMERGSRSLPDSGRTSPCPRDGEWFIKMLRAEVEKLEHWCQQMEREAEDYELPEEILEKIRSAVGSTQLLLSQKVQQFFRLCQQSLDPTAFPVPTFQDLAGFWDLLQLSIEDVTLKFLELQQLKANSWKLLEPKEEKKVPPPIPKKPSRGRGVPVKERSLDSVDRQRQEARKRLLAAKRAASFRHSSATESADSIEIYIPEAQTRL	binds
Rims1 (protein, UniProt Q99NE5 1-1463, phosphorylated; sites not given) MSSAVGPRGPRPPTVPPPMQELPDLSHLTEEERNIIMAVMDRQKEEEEKEEAMLKCVVRDMAKPAACKTPRNAESQPHQPPLNIFRCVCVPRKPSSEEGGPDRNWRLHQQFESYKEQVRKIGEEARRYQGEHKDDAPTCGICHKTKFADGCGHLCSYCRTKFCARCGGRVSLRSNNEDKVVMWVCNLCRKQQEILTKSGAWFFGSGPQQPSQDGTLSDTATGAGSEVPREKKARLQERSRSQTPLSTAAVSSQDTASHGAPLDRNKGAEPSQQALGPEQKQASRSRSEPPRERKKAPGLSEQNGKGGQKSERKRVPKSVVQPGEGTADERERKERRETRRLEKGRSQDYPDRLEKREDGRVAEDEKQRKEEEGVSTPEYTSCEDVELESESVSEKGDLDYWLDPATWHSRETSPISSHPVTWQPSKEGDRLIGRVILNKRTTMPKESGALLGLKVVGGKMTDLGRLGAFITKVKKGSLADVVGHLRAGDEVLEWNGKPLPGATNEEVYNIILESKSEPQVEIIVSRPIGDIPRIPESSHPPLESSSSSFESQKMERPSISVISPTSPGALKDAPQVLPGQLSVKLWYDKVGHQLIVNVLQATDLPPRVDGRPRNPYVKMYFLPDRSDKSKRRTKTVKKLLEPKWNQTFVYSHVHRRDFRERMLEITVWDQPRVQDEESEFLGEILIELETALLDDEPHWYKLQTHDESSLPLPQPSPFMPRRHIHGESSSKKLQRSQRISDSDISDYEVDDGIGVVPPVGYRASARESKATTLTVPEQQRTTHHRSRSVSPHRGDDQGRPRSRLPNVPLQRSLDEIHPTRRSRSPTRHHDASRSLADHRSRHAESQYSSEPDSELLMLPRAKRGRSAECLHMTSELQPSLDRARSASTNCLRPDTSLHSPERERGRWSPSLARRRPASPRIQIQHASPENDRHSRKSERSSIQKQSRKGTASDADRVLPPCLSRRGYAIPRATDQPVIRGKHTTRSRSSEHSSIRTLCSMHHLAPGGSAPPSPLLTRTHRQGSPTQSPPADTSFGSRRGRQLPQVPVRSGSIEQASLVVEERTRQMKMKVHRFKQTTGSGSSQELDHEQYSKYNIHKDQYRSCDNASAKSSDSDVSDVSAISRASSTSRLSSTSFMSEQSERPRGRISSFTPKMQGRRMGTSGRAIIKSTSVSGEIYTLEHNDGSQSDTAVGTVGAGGKKRRSSLSAKVVAIVSRRSRSTSQLSQTESGHKKLKSTIQRSTETGMAAEMRKMVRQPSRESTDGSINSYSSEGNLIFPGVRVGPDSQFSDFLDGLGPAQLVGRQTLATPAMGDIQIGMEDKKGQLEVEVIRARSLTQKPGSKSTPAPYVKVYLLENGACIAKKKTRIARKTLDPLYQQSLVFDESPQGKVLQVIVWGDYGRMDHKCFMGVAQILLEELDLSSMVIGWYKLFPPSSLVDPTLTPLTRRASQSSLESSSGPPCIRS	binds
phospho-β-PIX (T76) (protein, UniProt Q9ES28-8 1-705, phosphothreonine at T76) MTDNTNSQLVVRAKFNFQQTNEDELSFSKGDVIHVTRVEEGGWWEGTHNGRTGWFPSNYVREIKPSEKPVSPKSGTLKSPPKGFDTTAINKSYYNVVLQNILETEHEYSKELQSVLSTYLRPLQTSDKLSSANTSYLMGNLEEISSFQQVLVQSLEECTKSPEAQQRVGGCFLSLMPQMRTLYLAYCANHPSAVSVLTEHSEDLGEFMETKGASSPGILVLTTGLSKPFMRLDKYPTLLKELERHMEDYHPDRQDIQKSMTAFKNLSAQCQEVRKRKELELQILTEPIRSWEGDDIKTLGSVTYMSQVTIQCAGSEEKNERYLLLFPNLLLMLSASPRMSGFIYQGKLPTTGMTITKLEDSENHRNAFEISGSMIERILVSCTSQQDLHEWVEHLQKQTKVTSVSNPTIKPHSVPSHTLPSHPLTPSSKHADSKPVALTPAYHTLPHPSHHGTPHTTISWGPLEPPKTPKPWSLSCLRPAPPLRPSAALCYKEDLSKSPKTMKKLLPKRKPERKPSDEEFAVRKSTAALEEDAQILKVIEAYCTSAKTRQTLNSTWQGTDLMHNHVLADDDQSSLDSLGRRSSLSRLEPSDLSEDSEYDSIWTAHSYRMGSASRSRKESAPQVLLPEEEKIIVEETKSNGQTVIEEKSLVDTVYALKDEVQELRQDNKKMKKSLEEEQRARKDLEKLVRKVLKNMNDPAWDETNL	binds

Reference: article PMC9708603
